Experimental data from US5677288A, “Use of aminoglycosides to protect against excitotoxic neuron damage” (Cypros Pharmaceutical Corporation, priority 1994, dated 1997).
The name of at least one read-out is uncertain.

System: CA1 neurons in hippocampal tissue slices
Experiment: protection of rat hippocampal tissue slices (CA1 population spike recovery) against hypoxia
Format: cell-based, Sprague-Dawley rats
Conditions: 2.5 mM

Gentamicin
CA1 antidromic recovery (stimulated slices): 72±16%
antidromic recovery (unstimulated slices): 102±3%
orthodromic CA1 PS recovery (unstimulated slices): 102±3%
